# Data as given in PubChem BioAssay AID445 (National Center for Advancing Translational Sciences (NCATS), 2006).
# This is one part of the list. Further columns of the screen follow, without active or inactive calls. The list favours compounds with an active or inconclusive main result. The note in brackets gives the kind of curve behind each potency; many fits are weak.
# Experiment: IkB Signaling
# Details: ABC-DLBCL IkBa-CBG/CBR dual luciferase ratio (green luciferase fused to IkBa over red control in OCI-Ly3 lymphoma cells), 4 h
# Outline: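 Luminescence ratio of IκBα-fused green versus native red beetle luciferase in OCI-Ly3 cells, 4 h post-doxycycline with compound; red signal alone, scaled from basal (0%) to zero light (-100%), flagged nonspecific or cytotoxic effects.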
# [1] = measured here: control luc red channel unless noted
smiles,measurement,setting,value
CCOc1ccc(OCc2cccc(C(=O)N3CCOCC3)c2)cc1,AC50,[1],"5.01 µM [falling, partial curve]"
CC1CCN(c2nc3c(-c4cccc(Br)c4)nnn3c3ccccc23)CC1,AC50,[1],"1.26 µM [falling, full curve]"
COc1ccc(CNC(=O)CCc2c(C)nn(-c3ccc(N4CCCCC4)nn3)c2C)cc1,AC50,[1],"12.6 µM [falling, partial curve]"
Cc1cc(C)n(CCc2nc3c4ccccc4nc(SCc4ccc(Cl)cc4)n3n2)n1,AC50,[1],"3.98 µM [rising, partial curve]"
O=C(NC1(C(F)(F)F)N=C(c2ccccc2)N(C2CCCCC2)C1=O)c1ccc(F)cc1 (stereo not drawn),AC50,[1],"25.1 µM [falling, single point]"
Cc1ccc(C(=O)CC2(O)C(=O)N(Cc3ccccc3)c3ccccc32)o1 (stereo not drawn),AC50,[1],"25.1 µM [falling, single point]"
CCOc1ccc(NC(=O)CC2C(=O)N(c3ccc(C)cc3)C(=O)N2C2CCCCC2)cc1 (stereo not drawn),AC50,[1],"3.98 µM [rising, partial curve]"
O=C(c1cccs1)N1CCCC(c2nc(-c3ccc(F)cc3)no2)C1 (stereo not drawn),AC50,[1],"7.94 µM [rising, single point] [measured here: IkB-luc green channel]"
Cn1ccc2cc(S(=O)(=O)N3CCCC(C(=O)NCc4ccc(F)cc4)C3)ccc21 (stereo not drawn),AC50,[1],"2.51 µM [falling, full curve]"
Cc1ccc(-c2noc(C3CCCN(C(=O)c4c(F)cccc4F)C3)n2)cc1 (stereo not drawn),AC50,[1],"15.8 µM [falling, partial curve]"
COC(=O)c1ccc(C2C=C(c3ccc(Cl)cc3)Nc3nc4ccccc4n32)cc1 (stereo not drawn),AC50,[1],"12.6 µM [falling, partial curve]"
CCOc1ccccc1-c1noc(CCCC(=O)Nc2cccc(C(F)(F)F)c2)n1,AC50,[1],"20 µM [falling, partial curve]"
O=C(CSc1nc(-c2ccc(F)cc2)nc2c1Cc1ccccc1O2)Nc1cccc(C(=O)O)c1,AC50,[1],"15.8 µM [falling, single point]"
Cc1ccc2c(c1)c(=O)c(C(=O)c1ccccc1)cn2Cc1ccccc1F,AC50,[1],"25.1 µM [falling, single point]"
COc1ccc(NC(=O)CC2C(=O)N(c3ccccc3)C(=O)N2CCC2=CCCCC2)cc1 (stereo not drawn),AC50,[1],"25.1 µM [falling, partial curve]"
CCN1C(=O)c2ccccc2S(=O)c2ccc(C(=O)NCc3ccc(C)cc3)cc21 (stereo not drawn),AC50,[1],"25.1 µM [falling, single point]"
COc1ccc(S(=O)(=O)N(CC(=O)Nc2ccc(OC)cc2OC)c2ccc(Cl)cc2)cc1,AC50,[1],"15.8 µM [falling, partial curve]"
CCOC(=O)C(C(=O)OCC)C1N=C(N)N=C2Oc3ccccc3N21 (stereo not drawn),AC50,[1],"0.0126 µM [falling, full curve]"
COc1ccc(-c2nc(SCC(=O)c3ccc(Br)cc3)n[nH]2)cc1,AC50,[1],"3.98 µM [rising, full curve]"
COc1ccc(/C=C(/C#N)c2nc(-c3cc4ccccc4oc3=O)cs2)cc1,AC50,[1],"0.794 µM [rising, full curve]"
CCC1CN(C(=O)Nc2ccccc2C(F)(F)F)c2ccccc2O1 (stereo not drawn),AC50,[1],"15.8 µM [falling, partial curve]"
Cc1cccc(N2CC(c3nc4ccc(C)cc4[nH]3)CC2=O)c1 (stereo not drawn),AC50,[1],"31.6 µM [falling, single point]"
COc1ccccc1C(=O)Nc1c(C(=O)N2CCN(c3ccc(F)cc3)CC2)oc2ccccc12,AC50,[1],"25.1 µM [falling, single point]"
COc1ccc(NC(=O)C2CCCN(C(=O)c3cnn(-c4ccccc4)c3-n3cccc3)C2)cc1 (stereo not drawn),AC50,[1],"12.6 µM [falling, single point]"
Cc1ccc(-n2nc3cc(C)c(NC(=O)COc4ccccc4)cc3n2)cc1,AC50,[1],"0.2 µM [rising, full curve, poor fit]"
O=C(NCC(c1cccnc1)N1CCc2ccccc21)c1ccc(F)c(F)c1 (stereo not drawn),AC50,[1],"20 µM [falling, single point]"
Cc1cnn(-c2nc(-c3cccs3)cc(C(F)(F)F)n2)c1,AC50,[1],"31.6 µM [falling, single point]"
Cc1cccc(C(=O)Nc2cccc(OCc3cc(=O)n4cc(C)sc4n3)c2)c1,AC50,[1],"1.58 µM [falling, full curve]"
Cc1ccc(C(C)C)c(OCC(=O)NCC2(N3CCOCC3)CCCCC2)c1,AC50,[1],"31.6 µM [falling, single point]"
Cc1ccc(-n2cc3c(c2-c2ccccc2Br)c(=O)n(C)c(=O)n3C)cc1N,AC50,[1],"39.8 µM [falling, single point]"
O=c1c2ccccc2n(Cc2ccccc2Cl)c(=O)n1CCc1ccccc1,AC50,[1],"0.794 µM [falling, partial curve, poor fit]"
CCCCCOc1ccc(Cn2c(=O)oc3ccccc32)cc1,AC50,[1],"3.16 µM [falling, full curve, poor fit]"
CC(C)(C)OC(=O)N1CCC(c2c(C(=O)NC3CCN(Cc4ccccc4)CC3)cnn2-c2ccc(F)cc2F)CC1,AC50,[1],"12.6 µM [falling, partial curve]"
Cc1ccc(NC(=O)C2CCCN(S(=O)(=O)c3ccc4c(c3)oc(=O)n4C)C2)cc1Cl (stereo not drawn),AC50,[1],"5.01 µM [falling, partial curve]"
Cc1ccc(-c2noc(CCC(=O)N3CCCc4ccccc43)n2)cc1,AC50,[1],"12.6 µM [falling, partial curve]"
COc1ccc(NC(=O)c2c(NCc3sccc3C)sc3c2CCCC3)c(OC)c1,AC50,[1],"20 µM [falling, partial curve]"
CCCOc1ccc(CN(C(=O)Cc2coc3ccc(CC)cc23)C2CCS(=O)(=O)C2)cc1 (stereo not drawn),AC50,[1],"31.6 µM [falling, single point]"
O=S(=O)(Nc1nnc(-c2ccccc2)s1)c1ccc(Cl)cc1,AC50,[1],"7.94 µM [falling, partial curve]"
Cc1ccc(NC(=O)CN2CCN(S(=O)(=O)c3ccc(C(C)C)cc3)CC2)cc1F,AC50,[1],"5.01 µM [falling, partial curve]"
CCC1=Nc2cc(C(=O)NC3CCC(C)CC3)ccc2Sc2ccc(C)cc21 (stereo not drawn),AC50,measured here: IkB-luc green channel,"1.58 µM [rising, full curve]"
same,AC50,measured here: control luc red channel,"0.794 µM [rising, full curve, poor fit]"
CCC1CN(C(=O)N2CCC(C(=O)NCc3cccc(OC)c3OC)CC2)c2cc(C)ccc2O1 (stereo not drawn),AC50,[1],"3.16 µM [falling, partial curve]"
CC(C)c1ccc(NC(=O)c2ccc(F)c(S(=O)(=O)N3CCc4ccccc43)c2)cc1,AC50,[1],"15.8 µM [falling, partial curve]"
O=C(CSc1ncnc2ccccc12)Nc1ccc2c(c1)OCO2,AC50,[1],"12.6 µM [falling, partial curve]"
COc1ccccc1NC(=O)c1sc2nc(C)c(C(=O)Nc3ccc(C)cc3C)c(-c3ccco3)c2c1N,AC50,[1],"3.16 µM [falling, full curve]"
O=C(C1CCCN(S(=O)(=O)c2cccc3nsnc23)C1)N1CCN(c2ccccc2F)CC1 (stereo not drawn),AC50,[1],"25.1 µM [falling, partial curve]"
CCC(C)NC(=O)CSc1nc2n[nH]c(C)c2c(=N)n1-c1cc(Cl)ccc1C (stereo not drawn),AC50,[1],"39.8 µM [falling, single point]"
COc1ccccc1CNC(=O)c1cc2sccc2n1Cc1ccc(Cl)cc1,AC50,[1],"20 µM [falling, single point]"
COc1ccc(NC(=O)CSc2ccc3nc(-c4ccccc4)cn3n2)c(OC)c1,AC50,[1],"31.6 µM [falling, partial curve]"
Cc1ccccc1NC(=O)CSc1nc2ccc(NC(=O)c3cccs3)cc2s1,AC50,[1],"12.6 µM [falling, partial curve]"
CSc1cccc(NC(=O)c2cccc(N3CCCS3(=O)=O)c2)c1,AC50,[1],"39.8 µM [falling, single point]"
CCOc1ccc(S(=O)(=O)Nc2cccc(-c3ccc(OCC)nn3)c2)cc1,AC50,[1],"31.6 µM [falling, single point]"
Cc1cccc(NC(=O)COC(=O)CCCC2=NS(=O)(=O)c3ccccc3N2)c1,AC50,[1],"0.316 µM [falling, full curve, poor fit]"
Cc1nc2c(C(=O)N3CCN(c4ccccn4)CC3)cnn2c(C)c1Cc1cccc(Cl)c1,AC50,[1],"12.6 µM [falling, partial curve]"
C=CCn1c(SCC(=O)Nc2cc(C)c(Cl)cc2OC)nnc1-c1ccco1,AC50,[1],"12.6 µM [falling, partial curve]"
COc1ccccc1N1CCN(C(=O)C2CCN(S(=O)(=O)Cc3ccccc3)CC2)CC1,AC50,[1],"3.16 µM [rising, partial curve]"
COc1ccc(CCNC(=O)CCCn2c(=O)c3cccn3c3ccccc32)cc1OC,AC50,[1],"20 µM [falling, partial curve]"
CCCc1[nH]nc2c1C(/C(C)=C/c1ccccc1)C(C#N)=C(N)O2 (stereo not drawn),AC50,[1],"15.8 µM [falling, partial curve]"
O=C(CSc1n[nH]c(-c2ccco2)n1)Nc1sc2c(c1C(=O)Nc1ccccc1)CCCC2,AC50,[1],"3.16 µM [falling, full curve]"
O=C(OCc1nnc(-c2ccccc2)o1)c1cc(S(=O)(=O)N2CCOCC2)c(Cl)cc1Cl,AC50,[1],"31.6 µM [falling, single point]"
CC1CN(c2nc3c(c(=O)n(Cc4ccc(Cl)cc4)c(=O)n3C)n2C)CC(C)O1 (stereo not drawn),AC50,[1],"20 µM [falling, single point]"
CCc1ccc(CNC(=O)CCCN2C(=O)CCn3nc(-c4cccn4C)cc32)cc1,AC50,[1],"12.6 µM [falling, partial curve]"
CC(C)CCN(Cc1ccco1)C(=O)c1cc2c(s1)-c1ccccc1OC2,AC50,[1],"25.1 µM [falling, single point]"

# Quoted at random: 4 entries already listed, in no set order.
smiles,measurement,setting,value
CCN1C(=O)c2ccccc2S(=O)c2ccc(C(=O)NCc3ccc(C)cc3)cc21 (stereo not drawn),AC50,[1],"25.1 µM [falling, single point]"
O=c1c2ccccc2n(Cc2ccccc2Cl)c(=O)n1CCc1ccccc1,AC50,[1],"0.794 µM [falling, partial curve, poor fit]"
O=S(=O)(Nc1nnc(-c2ccccc2)s1)c1ccc(Cl)cc1,AC50,[1],"7.94 µM [falling, partial curve]"
Cc1cccc(N2CC(c3nc4ccc(C)cc4[nH]3)CC2=O)c1 (stereo not drawn),AC50,[1],"31.6 µM [falling, single point]"
